The assay concerns the target T1, FLAG-tagged HPV51 Nu strain L2 (51NuL2-FLAG) (human papillomavirus type 51, Nu strain) (UniProt P26539).
T1 sequence: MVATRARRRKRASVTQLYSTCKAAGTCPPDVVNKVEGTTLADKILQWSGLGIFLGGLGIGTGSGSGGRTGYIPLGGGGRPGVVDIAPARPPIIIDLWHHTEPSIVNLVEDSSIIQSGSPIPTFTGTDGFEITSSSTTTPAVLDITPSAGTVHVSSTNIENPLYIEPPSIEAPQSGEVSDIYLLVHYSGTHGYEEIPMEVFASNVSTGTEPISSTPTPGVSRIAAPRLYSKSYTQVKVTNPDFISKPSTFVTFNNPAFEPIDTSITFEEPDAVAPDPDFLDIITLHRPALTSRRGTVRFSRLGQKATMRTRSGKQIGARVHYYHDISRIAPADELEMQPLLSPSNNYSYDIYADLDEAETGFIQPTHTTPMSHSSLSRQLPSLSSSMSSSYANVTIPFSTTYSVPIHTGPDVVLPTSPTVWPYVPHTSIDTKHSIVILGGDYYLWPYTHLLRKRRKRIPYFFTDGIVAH
The assay is described as follows: affinity purification with mass spectrometry; anti-FLAG precipitates of 51MaL2-FLAG and 51NuL2-FLAG from HEK293FT lysates compared on a SYPRO Ruby-stained SDS gel; the 150-kDa band excised, digested with trypsin, MALDI-QIT-TOF MS, Mascot.

By UniProt entry, the sequences of proteins in these tests, tags left out.
UniProt Q9Y2L5: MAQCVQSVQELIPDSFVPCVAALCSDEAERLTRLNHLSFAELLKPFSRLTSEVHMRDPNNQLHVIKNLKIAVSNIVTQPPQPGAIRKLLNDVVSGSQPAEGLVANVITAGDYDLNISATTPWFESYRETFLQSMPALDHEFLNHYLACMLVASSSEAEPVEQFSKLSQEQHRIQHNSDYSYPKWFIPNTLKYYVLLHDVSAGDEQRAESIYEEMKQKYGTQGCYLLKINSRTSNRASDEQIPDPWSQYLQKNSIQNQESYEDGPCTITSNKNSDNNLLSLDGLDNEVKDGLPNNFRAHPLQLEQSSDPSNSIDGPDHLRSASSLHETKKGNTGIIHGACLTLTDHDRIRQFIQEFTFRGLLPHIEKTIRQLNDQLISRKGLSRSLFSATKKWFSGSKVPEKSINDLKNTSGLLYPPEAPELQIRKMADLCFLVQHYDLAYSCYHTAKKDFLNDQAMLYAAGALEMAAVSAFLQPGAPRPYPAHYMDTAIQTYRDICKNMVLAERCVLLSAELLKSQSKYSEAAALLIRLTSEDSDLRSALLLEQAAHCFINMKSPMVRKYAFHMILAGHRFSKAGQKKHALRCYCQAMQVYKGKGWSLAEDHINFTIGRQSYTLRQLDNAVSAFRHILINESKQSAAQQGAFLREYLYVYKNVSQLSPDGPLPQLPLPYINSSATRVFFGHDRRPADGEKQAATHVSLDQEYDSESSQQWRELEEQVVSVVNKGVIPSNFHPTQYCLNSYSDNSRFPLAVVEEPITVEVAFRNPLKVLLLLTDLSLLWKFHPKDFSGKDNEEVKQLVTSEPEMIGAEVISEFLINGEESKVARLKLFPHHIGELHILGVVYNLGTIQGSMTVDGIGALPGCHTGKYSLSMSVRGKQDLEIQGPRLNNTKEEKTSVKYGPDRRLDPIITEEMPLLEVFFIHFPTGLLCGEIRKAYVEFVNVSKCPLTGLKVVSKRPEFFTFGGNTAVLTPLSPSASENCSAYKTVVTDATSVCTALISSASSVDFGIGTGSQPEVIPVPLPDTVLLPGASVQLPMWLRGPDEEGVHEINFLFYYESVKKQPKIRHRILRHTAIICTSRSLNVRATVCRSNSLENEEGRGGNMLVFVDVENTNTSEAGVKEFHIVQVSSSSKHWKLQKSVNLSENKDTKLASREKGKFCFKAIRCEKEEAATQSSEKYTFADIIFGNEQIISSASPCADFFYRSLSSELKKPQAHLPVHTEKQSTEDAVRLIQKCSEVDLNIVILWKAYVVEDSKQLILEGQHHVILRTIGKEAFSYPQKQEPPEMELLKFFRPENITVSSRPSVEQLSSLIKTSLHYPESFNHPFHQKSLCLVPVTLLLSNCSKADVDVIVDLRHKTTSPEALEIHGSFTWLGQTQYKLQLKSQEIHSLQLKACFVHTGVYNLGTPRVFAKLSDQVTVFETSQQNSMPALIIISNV

The source of these data is publication PMC3828182.

No constants are given. Whether binding was seen depends on the method and setting. Binding seen in cells or lysates may run through a third protein. A yes stands for co-enrichment or nearness to the bait. Other partners may have been found. A no says only that the protein was not detected with the bait. Sequences can lack the tags named with a protein.

On to “transport protein particle complex subunit 8 (TRAPPC8) (from UniProt Q9Y2L5 1-1435)”, for which the binding entry was “no binding”.
